Values of other authors as cited in PMC8473701.

Experiment: not told

CC(C)CC(=O)O
log partition chloroform / water: 0.19 log10
log partition hexadecane / water: -1.33 log10
log partition octanol / water: 1.16 log10
